Out of some 330,000 compounds screened, about 7,700 (2.3%) were called active. This list was built around the results that the source calls inconclusive (neither active nor inactive); the mix of calls is not that of the screen. Calls follow the shape of the dose curve; as a rule, active = well fitted inhibition curve with a large enough effect; inconclusive = small, poorly fitted or top-dose-only effect, or effect the other way; inactive = flat fitted curve, though single readings scatter. A potency beside an inconclusive call is a rough fit, not a confirmed value.
assay: qHTS screen for small molecules that inhibit ELG1-dependent DNA repair in human embryonic kidney (HEK293T) cells expressing luciferase-tagged ELG1; details: HEK293T ELG1-luciferase reporter, luminescence, 16 h, DNA damage induced by 5-fluorouridine; series mostly up to 46.1 µM; also: nearly all actives have a fitted effect of over 55% in size
In short: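 Quantitative HTS, concentration-response format. 2,000 cells/well co-treated with 5-fluorouridine and compound, 16 hr in 5% CO2 at 37 °C; ONE-Glo luminescence read after 30 min.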
Potency is read from the fitted curve at half-maximal effect.

Structure (SMILES) | Potency
COC(=O)c1ccc(=O)c2nc3/c(=C/O)c(O)cc(=O)c3[nH]c12 | inconclusive: 29.1 µM [inhibitor, single point]
CCOC(=O)c1sc2c(c1C)c(=O)n(Cc1ccccc1)c(=O)n2CCN(C)C | inconclusive: 25.9 µM [inhibitor, single point]
CCOC(=O)[C@@H]1[C@H]2COc3cc(OC)ccc3[C@@H]2N2C(=O)N(c3ccc(C)cc3)C(=O)[C@@]12C | inactive
CC(C)OC(=O)C1=C2SCC(=O)N2C(N)=C(C#N)C1 | inactive
COC(=O)c1sc(NC(=O)COc2cccc3ccccc23)nc1C | inactive
COc1ccc(CNC(=O)c2sc3nc4c(c(C(F)(F)F)c3c2N)CCC4)cc1OC | inconclusive: 20.6 µM [inhibitor, single point]
COc1ccc2cc(C(=O)C3CCCN(C(=O)CCc4cnn(C)c4)C3)ccc2c1 (stereo unspecified) | inconclusive: 29.1 µM [inhibitor, single point]
CCC1=C(c2ccc(C)cc2)S(=O)(=O)N=C1N1CCC(C(=O)NCCCN2CCCCC2C)CC1 (stereo unspecified) | inactive
Cc1ccc(S(=O)(=O)N(CC(=O)N(C(C)C)C(C)C)C(=O)N2CCN(C)CC2)cc1 | inactive
CC(C)N1C(=O)CC(Nc2cccc3cccc(N)c23)C1=O (stereo unspecified) | inconclusive: 18.3 µM [inhibitor, partial curve, poor fit]
CCOc1ccc(NC(=O)c2ccc(N3CC4CC(C3)c3cccc(=O)n3C4)c(NC(=O)CCN3CCOCC3)c2)cc1 (stereo unspecified) | active: 7.3 µM
Cc1ccc(Cn2ccc(-c3cnc(-c4ccccc4)s3)n2)cc1 | inconclusive: 4.11 µM [activator, full curve]
COc1ccccc1CC1S/C(=N/N=C/c2ccco2)NC1=O (stereo unspecified) | inactive
O=C(NC(=S)Nc1cc(Cl)ccc1N1CCOCC1)c1ccc(-c2cccc(Cl)c2)o1 | inactive
CCOC(=O)c1cc(C#N)c(N2CCN(C(=O)c3cccc(C(F)(F)F)c3)CC2)nc1C(F)(F)F | inconclusive: 20.6 µM [inhibitor, single point]
Cc1ccc(S(=O)(=O)N2CCOC2CNC(=O)C(=O)NCc2ccc(Cl)cc2)cc1 (stereo unspecified) | active: 23.1 µM
CN(C)S(=O)(=O)n1cc(/C=C(\NC(=O)c2ccccc2F)C(=O)N2CCCC2)c2ccccc21 | inactive
CC(=O)NCCSC(=O)c1ccc(F)cc1 | inconclusive: 32.6 µM [activator, partial curve, poor fit]
COc1ccc(C)cc1N(CC(=O)NCCSCc1ccco1)S(=O)(=O)c1ccc(C)cc1 | inconclusive: 29.1 µM [inhibitor, single point]
O=C(NNC(=O)C1CCC1)c1ccccc1F | inactive
Cc1cc(NC(=O)CCC(=O)N(c2ccccc2)C2(C(=O)NC3CCCCC3)CCCC2)no1 | inactive
CCc1nc(C)cn1S(=O)(=O)c1cc(C)c(OC)c(C)c1C | inconclusive: 3.66 µM [inhibitor, full curve]
CC(=O)c1c(C)[nH]c(C(=O)NCCC2=CCCCC2)c1C | inconclusive: 3.26 µM [activator, full curve]
O=c1n(Cc2ccccc2)nc2n1-c1ccccc1SC2 | inconclusive: 18.3 µM [activator, partial curve]

Structure (SMILES) | Potency
COc1ccc(-c2sc3cc(OC)c(OC)cc3c2C#CC(C)(C)O)cc1 | inconclusive: 9.2 µM [inhibitor, partial curve]
COc1ccc(NS(=O)(=O)c2ccc(NS(=O)(=O)c3ccc(SC)cc3)cc2)c(OC)c1 | inactive
CCN(CC)CCNS(=O)(=O)c1ccc(OC)c(Br)c1 | inactive
O=C(CCn1nc(-c2ccccc2)ccc1=O)N1CCN(c2ccccn2)CC1 | inconclusive: 25.1 µM [inhibitor, single point]
O=[N+]([O-])c1cccc(NC(=S)Nc2nc(-c3ccccc3Cl)cs2)c1 | inconclusive: 29.1 µM [activator, single point]
Cn1c(=O)[nH]c(=O)c2c1nc(NCCN)n2CCOc1ccccc1 | inactive
CCCCNc1oc(-c2cccs2)nc1S(=O)(=O)c1ccccc1 | inconclusive: 16.4 µM [inhibitor, single point]
CCOC(=O)N1CCN(C(=O)C2CCN(S(=O)(=O)c3cc(Cl)ccc3Cl)CC2)CC1 | inconclusive: 25.9 µM [inhibitor, partial curve, poor fit]
CN(C(=O)c1cccc(COc2ccc(Cl)cc2Cl)c1)c1ccccc1 | inconclusive: 1.84 µM [activator, full curve]
COc1ccc(-c2cc3ncc(C(C)=O)c(C)n3n2)cc1 | inconclusive: 2.59 µM [activator, full curve]
Cc1cnc(C(=O)OCC(=O)NC(C)c2ccccc2)cn1 (stereo unspecified) | inactive
Cc1ccc(S(=O)(=O)N(C)S(=O)(=O)c2ccc(C#N)cc2)cc1 | inconclusive: 18.3 µM [inhibitor, single point]
COCC(C)n1c(C)cc(C(=O)CN2C(=O)NC3(CCCCC3C)C2=O)c1C (stereo unspecified) | inactive
COCCn1c(SCc2ccc(C(=O)OC)o2)nc2ccccc2c1=O | inconclusive: 18.4 µM [inhibitor, single point]
O=C(/C=C/c1ccc2c(c1)OCO2)NCCSCc1c(Cl)cccc1Cl | inconclusive: 23.1 µM [inhibitor, partial curve, poor fit]
COc1cccc(CN(CC(=O)NC2CCCC2)C(=O)CCC(=O)Nc2cc(C)on2)c1 | inactive
Cc1ccccc1-c1nc(CS(=O)(=O)CC(=O)Nc2cc(F)ccc2F)c(C)o1 | inactive
CCCOC(=O)CSC1=C(C#N)C(c2ccc3c(c2)OCO3)CC(=O)N1 (stereo unspecified) | inconclusive: 20.6 µM [inhibitor, single point]
CN1C(=S)SC(N(O)C(=O)Nc2ccc(Cl)c(Cl)c2)C1(C)C (stereo unspecified) | inconclusive: 11.6 µM [inhibitor, partial curve, poor fit]
COc1ccc(CNC(=O)c2ccc(-c3ccccc3)cc2)cc1 | inconclusive: 20.6 µM [activator, single point]
O=C(O)CSc1nnc(-c2ccc(S(=O)(=O)N3CCCC3)cc2)n1Cc1ccco1 | inactive
Cc1c(C(=O)Nc2cccc(Cl)c2)c2ccccn2c1CCc1ccncc1 | inconclusive: 32.6 µM [inhibitor, single point]
Cc1noc(C)c1C(=O)Nc1ccc(S(=O)(=O)N2CCC(C)CC2)cc1 | inactive
Cc1noc(C)c1S(=O)(=O)Nc1ccc(C#N)cc1 | inactive

Ordered by heavy-atom count (largest number first): some entries from above.
Structure (SMILES) | Potency
O=C(CCn1nc(-c2ccccc2)ccc1=O)N1CCN(c2ccccn2)CC1 | inconclusive: 25.1 µM [inhibitor, single point]
COCC(C)n1c(C)cc(C(=O)CN2C(=O)NC3(CCCCC3C)C2=O)c1C (stereo unspecified) | inactive
Cc1noc(C)c1C(=O)Nc1ccc(S(=O)(=O)N2CCC(C)CC2)cc1 | inactive
Cc1cnc(C(=O)OCC(=O)NC(C)c2ccccc2)cn1 (stereo unspecified) | inactive

(continued)

Structure (SMILES) | Potency
Cc1ccccc1Nc1nc(N)nc(CN(C)c2ccccc2)n1 | inconclusive: 18.4 µM [activator, single point]
CC(=O)Oc1ccc(N2C(=O)C3C4C=CC(CC4)C3C2=O)cc1[N+](=O)[O-] (stereo unspecified) | inconclusive: 1.16 µM [activator, single point]
COc1cc(OC)c(OC)cc1/C=N/NC(=O)CSc1ccccc1F | inactive
COc1ccccc1Cn1nnc2c(=O)[nH]c(C3CCN(C(=O)c4ccccc4Cl)CC3)nc21 | inconclusive: 14.6 µM [inhibitor, partial curve]
O=c1[nH]c(=O)n([C@H]2C[C@H](O)[C@@H](CO)O2)cc1C(F)(F)F | inconclusive: 2.91 µM [inhibitor, partial curve, poor fit]
Fc1cccc(-c2cc3nc4c(c(N5CCOCC5)n3n2)CCCC4)c1 | inconclusive: 29.1 µM [inhibitor, single point]
CCc1ccc(OCC(=O)N/N=C/c2cc([N+](=O)[O-])ccc2N2CCCCCC2)cc1 | inconclusive: 7.31 µM [inhibitor, partial curve, poor fit]
CCn1c(COc2ccc(C)cc2)nc2ccccc21 | inconclusive: 14.6 µM [activator, partial curve]
CNC(=O)NC(=O)COC(=O)c1ccc(-n2c(C)ccc2C)cc1 | inconclusive: 20.6 µM [activator, partial curve, poor fit]
COc1ccc(NC(=O)Nc2ccc3oc(C)nc3c2)cc1 | inconclusive: 16.4 µM [activator, partial curve]
O=c1cc(N2CCc3ccccc32)[nH]c(=O)n1-c1ccccc1 | inactive
O=S(=O)(Nc1ccc(F)cc1)c1ccc(NS(=O)(=O)c2cccs2)cc1 | inactive
Cc1cc(C)c2nc(N3CCN(C(=O)c4ccco4)CC3)sc2c1 | inconclusive: 13 µM [activator, partial curve]
CCCCCC1=CCC/C1=N\NC(=O)c1ccc2c(c1)OCO2 | inactive
CCOC(=O)c1sc(=S)n(C)c1NC(=O)c1cccc(Br)c1 | active: 13 µM
COc1ccccc1NC(=O)NCCc1c[nH]c2ccccc12 | inactive
CCc1ccc(-c2nc(-c3ccncc3)no2)cc1 | inconclusive: 1.3 µM [activator, partial curve]
O=C(c1cc2ccccc2o1)N1CCN(c2cccc(C(F)(F)F)c2)CC1 | inconclusive: 23.1 µM [inhibitor, partial curve, poor fit]
CCN1CCN(C2=C(Cl)C(=O)N(Cc3ccccc3)C2=O)CC1 | inconclusive: 0.82 µM [inhibitor, full curve]
Cc1onc(-c2c(F)cccc2Cl)c1C(=O)NC1=NCCS1 | inconclusive: 20.6 µM [inhibitor, partial curve, poor fit]
CC(C)N1CCC(N2CCN(C3CCCCCC3)CC2CCO)CC1 (stereo unspecified) | inactive
COc1ccc(C2C(C#N)=C(N)Oc3cc(O)ccc32)cc1OC (stereo unspecified) | inconclusive: 18.4 µM [activator, single point]
Cc1ccc2c(=O)n3c(nc2c1)C(Cc1ccccc1)NC(=O)c1ccc(Cl)cc1-3 (stereo unspecified) | inactive

— PubChem BioAssay AID504467 (National Center for Advancing Translational Sciences (NCATS), 2011)
